PubChem BioAssay AID2685 (National Center for Advancing Translational Sciences (NCATS), 2010)
The list shows a part of the results. Further columns of the screen follow, without active or inactive calls. Most of these compounds were active or inconclusive in the main read-out, so they are no random draw. Words in brackets tell the shape of the fitted curve; partial curves, single points and poor fits give uncertain potencies.

Assay: qHTS Assay for Lipid Storage Modulators in Drosophila S3 Cells;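 for cell number change: cells counted by Cell Tracker Red CMTPX staining in the red channel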
Details: BODIPY lipid droplet fluorescence, 18-24 h; for cell number change: measured here: cell count max response, cells fed with added oleic acid
How it was run: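 Laser-scanning cytometry quantifies lipid droplet accumulation (500–530 nm total intensity; droplet/cell object ratio) in oleic acid-fed (400 uM added) Drosophila S3 cells treated with a concentration series. 20 uM Triacsin C defined 100% inhibition.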

[1] = measured here: cell number channel AC50, cells fed with added oleic acid
[2] = measured here: lipid fluorescence (Fed channel) AC50, cells fed with added oleic acid

Row | Structure (SMILES) | cell number change [%] | AC50 [1] | AC50 [2]
1 | C/C(=N\NC(=O)c1cccc2ccccc12)c1ccccn1 | -36.2 | 4.11 µM [falling, partial curve] | 29.1 µM [falling, single point]
2 | O=C(c1ccc(-c2nc3ccccc3s2)s1)N1CCOCC1 |  | 0.731 µM [rising, single point] | 
3 | COc1ccc(S(=O)(=O)N(C(=O)C(C)C)c2ccc3oc(=O)sc3c2)cc1 | -53.1 | 14.6 µM [falling, single point] | 29.1 µM [falling, single point]
4 | O=C(COc1cc2oc(=O)c3c(c2cc1Cl)CCC3)NCCCN1CCCC1=O | 11.1 |  | 
5 | COc1cc(/C=N/N(c2ccccc2)c2ccccc2)ccc1O | -81.3 | 16.4 µM [falling, single point] | 
6 | CCN(CC)S(=O)(=O)c1ccc(NC(=O)CCNC(=O)c2ccccc2)cc1 | 6.83 |  | 4.61 µM [rising, single point]
7 | CS(=O)(=O)N1CCc2cc(C(=O)OCC(=O)c3ccccc3)ccc21 | -0.556 |  | 
8 | O=C1CCC(C(=O)N2CCN(c3ccc(F)cc3)CC2)CN1CC1CCCCC1 (centres undefined) | 29.4 | 2.31 µM [rising, full curve, poor fit] | 
9 | COc1ccc(Cl)c(Cn2c(NCCCN(C)C)nc3c2c(=O)n(C)c(=O)n3C)c1 | 9.46 |  | 3.26 µM [rising, partial curve, poor fit]
10 | COc1ccc(NC(=O)CCS(=O)(=O)c2cccc3nonc23)cc1 | 108 | 29.1 µM [rising, single point] | 20.6 µM [rising, partial curve]
11 | COc1ccc(C(=O)NCCc2nnc3ccc(SCC(=O)Nc4ccccc4)nn23)cc1 | -1.62 |  | 29.1 µM [falling, single point]
12 | CC(C)(C)c1ccc(S(=O)(=O)NCC(=O)Nc2sc3c(c2C(N)=O)CCCC3)cc1 | -5.71 |  | 
13 | Oc1ccc2ccccc2c1CNc1ccccn1 | -7.8 |  | 6.51 µM [rising, single point]
14 | Cc1cccc(C)c1NC(=O)C1CCCN1C(=O)Nc1cccc(F)c1 (centres undefined) | 9.46 |  | 
15 | C=CCn1c(SCC(=O)N2CCN(C(=O)c3ccco3)CC2)nc2sc(CC)cc2c1=O | -9.03 |  | 0.13 µM [rising, full curve, poor fit]
16 | CC(OC(=O)c1ccc(C(C)(C)C)cc1)C(=O)NC1CCCCC1C (centres undefined) | 0.0367 | 4.61 µM [rising, single point] | 20.6 µM [falling, single point]
17 | CCOC(=O)C(=O)NCC(c1cccs1)S(=O)(=O)c1ccc(C)cc1 (centres undefined) | -3.85 |  | 0.116 µM [rising, full curve, poor fit]
18 | CCN(CC(=O)NCc1cccs1)C(=O)c1cccc(S(=O)(=O)NC)c1 | -8.84 |  | 
19 | O=C(/C=C/c1c(Cl)cccc1Cl)N1CCN(c2ncccn2)CC1 | 36.4 | 4.11 µM [rising, full curve] | 
20 | CC(=O)c1cccc(NS(=O)(=O)c2ccc3c(c2)N(C(C)=O)CCO3)c1 | -5.7 |  | 

Taken from above:
AC50 [1], C/C(=N\NC(=O)c1cccc2ccccc12)c1ccccn1 reads 4.11 µM [falling, partial curve]
cell number change [%], O=C(COc1cc2oc(=O)c3c(c2cc1Cl)CCC3)NCCCN1CCCC1=O reads 11.1

Later entries

Row | Structure (SMILES) | cell number change [%] | AC50 [1] | AC50 [2]
21 | O=C(CSc1nc(Nc2ccccc2)nc(N2CCOCC2)n1)Nc1ccc([N+](=O)[O-])cc1 | -12 | 0.259 µM [rising, partial curve, poor fit] | 0.651 µM [rising, full curve]
22 | O=C(N/N=C/c1ccc(N2CCCCC2)o1)c1ccccc1 | -35.7 | 29.1 µM [falling, single point] | 25.9 µM [falling, single point]
23 | Cc1sc2ncn(CC(=O)N3CCN(c4ccc(F)cc4)CC3)c(=O)c2c1S(=O)(=O)N1CCOCC1 | 0.833 |  | 0.411 µM [falling, partial curve]
24 | CC(C)c1ccc(NC(=O)NCc2cccnc2)cc1 | 16 |  | 10 µM [rising, partial curve, poor fit]
25 | COc1cccc(NC(=O)NCCCN2CCN(c3ccc(F)cc3)CC2)c1 | -3.21 |  | 
26 | COc1ccc(C(O)(c2ccccc2OC)C(CN2CCOCC2)c2ccccc2)cc1 (centres undefined) | 15.6 | 0.103 µM [falling, full curve, poor fit] | 0.13 µM [falling, full curve, poor fit]
27 | CC(C)(C)c1nnc(NC(=O)c2cccnc2)s1 | 84.6 |  | 0.00461 µM [falling, full curve, poor fit]
28 | Cc1ccc(C(=O)NC(=S)NNC(=O)CCN2CCOCC2)cc1 | -2.71 |  | 
29 | COc1ccc(S(=O)(=O)N2CCCCCC2)cc1NC(=O)CC1OC(=O)c2ccccc21 (centres undefined) | 65.9 | 4.61 µM [rising, partial curve] | 
30 | O=C(O)CSCNC(=O)CC12CC3CC(CC(C3)C1)C2 | -17.5 |  | 
31 | CCc1nn(CC(=O)NC(C)CCc2ccccc2)c(=O)c2cc3occc3n12 (centres undefined) | -0.885 |  | 11.6 µM [falling, single point]
32 | COc1ccc2c(c1OC)C(=O)N1C(C(=O)O)Cc3c([nH]c4ccccc34)C21 (centres undefined) | 34.3 | 5.8 µM [rising, full curve] | 6.51 µM [rising, single point]
33 | CCN1C(=O)[C@H]2[C@@H](c3ccc(-c4ccc5c(c4)OCO5)c(OC)c3)N[C@@](Cc3ccccc3)(C(=O)OC)[C@H]2C1=O | -24.3 |  | 
34 | Cc1ccc(-c2nc(C3CCN(S(=O)(=O)c4ccc(C(C)(C)C)cc4)CC3)no2)cc1 | -49.4 | 5.17 µM [falling, single point] | 29.1 µM [falling, single point]
35 | O=C1NC(=O)c2cc(Br)cc3cccc1c23 | -1.08 |  | 
36 | Cc1cc(=O)oc2c3c(cc(OCC(=O)NC4CC4)c12)OC(C)(C)CC3 | 0.971 |  | 20.6 µM [falling, single point]
37 | O=C(Nc1ccc(-c2nc3ccccc3s2)cc1)c1cc(-n2cnnc2)ccc1Cl | -55.8 | 29.1 µM [falling, single point] | 18.4 µM [falling, single point]
38 | CCC(C)Sc1nnc(CSc2nc(C)cc(C)n2)n1C (centres undefined) | -7.29 |  | 
39 | COc1cccc(N2CC(NC(=O)c3ccc4ccccc4c3)CC2=O)c1 (centres undefined) |  |  | 16.4 µM [rising, partial curve]
